Binding data for two molecules are collected here from paper doi:10.1101/2023.08.13.546412 (bioRxiv, 2023).

By UniProt entry, the sequences of proteins in these tests, tags left out.
UniProt Q39012: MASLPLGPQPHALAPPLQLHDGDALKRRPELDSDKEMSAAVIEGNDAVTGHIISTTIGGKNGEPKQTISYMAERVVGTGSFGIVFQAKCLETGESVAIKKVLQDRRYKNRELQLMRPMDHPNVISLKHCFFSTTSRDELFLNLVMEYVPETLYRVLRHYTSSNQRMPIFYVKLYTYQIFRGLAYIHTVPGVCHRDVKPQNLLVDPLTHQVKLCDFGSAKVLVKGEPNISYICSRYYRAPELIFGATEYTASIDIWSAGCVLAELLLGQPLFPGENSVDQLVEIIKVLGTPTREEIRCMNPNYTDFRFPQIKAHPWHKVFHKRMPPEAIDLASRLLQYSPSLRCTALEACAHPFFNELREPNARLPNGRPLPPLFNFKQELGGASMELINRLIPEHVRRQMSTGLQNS

Results are given in words; binding and its absence hold for the method and conditions named. In cells and extracts the contact can be indirect. Some results given as binding are weak or reduced against the parent protein; the word gives no strength. Where a sequence is shown, tags or fusion partners need not be part of it.

The target in this assay is T1, WOX5-YFPN (WUSCHEL-RELATED HOMEOBOX 5 fused to the N-terminal half of YFP) (Arabidopsis thaliana) (UniProt Q8H1D2).
T1 sequence: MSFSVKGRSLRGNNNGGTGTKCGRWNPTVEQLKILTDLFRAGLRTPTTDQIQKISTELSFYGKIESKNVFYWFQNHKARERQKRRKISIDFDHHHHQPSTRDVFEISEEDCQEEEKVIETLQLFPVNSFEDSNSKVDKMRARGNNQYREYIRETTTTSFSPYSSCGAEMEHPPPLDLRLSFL
Put plainly: split reporter.

Consider “AtSK22-YFPC (from UniProt Q39012 1-407) (enzyme)”, for which the binding result is “binds”.

B1: AtSK23-YFPC (enzyme, UniProt Q39010 1-412)
chain: MTSIPLGPPQPPSLAPQPPHLHGGDSLKRRPDIDNDKEMSAAVIEGNDAVTGHIISTTIGGKNGEPKQTISYMAERVVGTGSFGIVFQAKCLETGESVAIKKVLQDRRYKNRELQLMRLMDHPNVVSLKHCFFSTTTRDELFLNLVMEYVPETLYRVLKHYTSSNQRMPIFYVKLYTYQIFRGLAYIHTAPGVCHRDVKPQNLLVDPLTHQCKLCDFGSAKVLVKGEANISYICSRYYRAPELIFGATEYTSSIDIWSAGCVLAELLLGQPLFPGENSVDQLVEIIKVLGTPTREEIRCMNPNYTDFRFPQIKAHPWHKVFHKRMPPEAIDLASRLLQYSPSLRCTALEACAHPFFNELREPNARLPNGRPLPPLFNFKQELSGASPELINRLIPEHVRRQMNGGFPFQAGP
Take B1: the binding result is on record as “binds”.
